In US10344330B2, “Glatiramer acetate response biomarker mRNA potency assay” (Mylan Inc., priority 2013, dated 2019):

Experiments:
Format in all cases: cell-based
[1] = test system: Atp5b mRNA in CD-1 mouse spleen cells; assay: Reference gene Atp5b mRNA (CT) in ConA-stimulated CD-1 mouse spleen cells (Example VI); details: CD-1 spleen cells, ConA 0.01-3.0 μg/mL, 6 hr
[2] = test system: Ppia mRNA in CD-1 mouse spleen cells; assay: Reference gene Ppia mRNA (CT) in ConA-stimulated CD-1 mouse spleen cells (Example VI); details: CD-1 spleen cells, ConA 0.01-3.0 μg/mL, 6 hr
[3] = test system: Rp113a mRNA in CD-1 mouse spleen cells; assay: Reference gene Rp113a mRNA (CT) in ConA-stimulated CD-1 mouse spleen cells (Example VI); details: CD-1 spleen cells, ConA 0.01-3.0 μg/mL, 6 hr
[4] = test system: Hprt mRNA in CD-1 mouse spleen cells; assay: Reference gene Hprt mRNA (CT) in ConA-stimulated CD-1 mouse spleen cells (Example VI); details: 6 hr
[5] = test system: B2m mRNA in CD-1 mouse spleen cells; assay: Reference gene B2m mRNA (CT) in ConA-stimulated CD-1 mouse spleen cells (Example VI); details: CD-1 spleen cells, ConA 0.01-3.0 μg/mL, 6 hr
[6] = test system: Gapdh mRNA in CD-1 mouse spleen cells; assay: Reference gene Gapdh mRNA (CT) in ConA-stimulated CD-1 mouse spleen cells (Example VI); details: CD-1 spleen cells, ConA 0.01-3.0 μg/mL, 6 hr
[7] = test system: Cyc1 mRNA in CD-1 mouse spleen cells; assay: Reference gene Cyc1 mRNA (CT) in ConA-stimulated CD-1 mouse spleen cells (Example VI); details: 6 hr
[8] = test system: β-Actin (ActB) mRNA in CD-1 mouse spleen cells; assay: Reference gene β-Actin mRNA (CT) in ConA-stimulated CD-1 mouse spleen cells (Example VI); details: 6 hr
[9] = CD-1 spleen cells responding to ConA stimulation
[10] = CD-1 spleen cells, ConA 0.01-3.0 μg/mL

For “Concanavalin A [ConA, reference compound]”, the “Atp5b Maximum (CT)” value [1] was 29.3 CT, the “Atp5b Mean (CT)” value [1] was 26.7 CT and the “Atp5b Minimum (CT)” value [1] was 24.0 CT. The “Ppia Maximum (CT)” value [2] was 30.3 CT, the “Ppia Mean (CT)” value [2] was 26.4 CT and the “Ppia Minimum (CT)” value [2] was 23.4 CT. For the same substance, the “Rp113a Maximum (CT)” value [3] was 28.2 CT, the “Rp113a Mean (CT)” value [3] was 26.0 CT and the “Rp113a Minimum (CT)” value [3] was 24.1 CT. For the same substance, the “Hprt mean CT value” [4, 9] was > 29, the “Hprt Maximum (CT)” value [4, 10] was 34.7 CT and the “Hprt Mean (CT)” value [4, 10] was 31.6 CT. For the same substance, the “Hprt Minimum (CT)” value [4, 10] was 29.1 CT, the “B2m Maximum (CT)” value [5] was 27.0 CT and the “B2m Mean (CT)” value [5] was 25.4 CT. The “B2m Minimum (CT)” value [5] was 23.3 CT, the “Gapdh Maximum (CT)” value [6] was 28.9 CT and the “Gapdh Mean (CT)” value [6] was 26.8 CT. The “Gapdh Minimum (CT)” value [6] was 25.3 CT, the “Cyc1 mean CT value” [7, 9] was > 29 and the “Cyc1 Maximum (CT)” value [7, 10] was 31.9 CT. The “Cyc1 Mean (CT)” value [7, 10] was 29.1 CT, the “Cyc1 Minimum (CT)” value [7, 10] was 26.6 CT and the “ActB mean CT value” [8, 9] was 22.8. The “ActB Maximum (CT)” value [8, 10] was 24.6 CT, the “ActB Mean (CT)” value [8, 10] was 22.8 CT and the “ActB Minimum (CT)” value [8, 10] was 20.8 CT.
